Experimental data from the supplement of paper PMC6411743.
± gives the standard deviation of the averaged measurements. The list shows a part of the results, in another mix than the full data.

The chains behind the UniProt entries cited, without tags or fusion partners. Where a name states a change or a piece, a line headed by the entry shows the natural chain unless it says otherwise.
UniProt Q96ME7: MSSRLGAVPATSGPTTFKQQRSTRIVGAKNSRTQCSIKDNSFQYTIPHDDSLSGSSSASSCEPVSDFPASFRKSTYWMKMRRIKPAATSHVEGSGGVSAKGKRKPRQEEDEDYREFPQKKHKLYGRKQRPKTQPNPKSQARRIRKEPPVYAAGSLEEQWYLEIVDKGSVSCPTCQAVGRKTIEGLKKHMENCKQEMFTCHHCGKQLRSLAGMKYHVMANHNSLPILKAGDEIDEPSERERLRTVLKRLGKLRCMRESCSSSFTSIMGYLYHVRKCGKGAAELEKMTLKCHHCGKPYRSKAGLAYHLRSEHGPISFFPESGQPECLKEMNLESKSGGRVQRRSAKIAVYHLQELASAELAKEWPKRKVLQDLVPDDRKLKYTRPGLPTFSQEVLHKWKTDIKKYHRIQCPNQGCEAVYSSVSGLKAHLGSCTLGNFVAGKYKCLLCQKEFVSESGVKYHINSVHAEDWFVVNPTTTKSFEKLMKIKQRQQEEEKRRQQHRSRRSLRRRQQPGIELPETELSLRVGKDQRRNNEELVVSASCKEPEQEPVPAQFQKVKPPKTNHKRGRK
UniProt Q96IG2: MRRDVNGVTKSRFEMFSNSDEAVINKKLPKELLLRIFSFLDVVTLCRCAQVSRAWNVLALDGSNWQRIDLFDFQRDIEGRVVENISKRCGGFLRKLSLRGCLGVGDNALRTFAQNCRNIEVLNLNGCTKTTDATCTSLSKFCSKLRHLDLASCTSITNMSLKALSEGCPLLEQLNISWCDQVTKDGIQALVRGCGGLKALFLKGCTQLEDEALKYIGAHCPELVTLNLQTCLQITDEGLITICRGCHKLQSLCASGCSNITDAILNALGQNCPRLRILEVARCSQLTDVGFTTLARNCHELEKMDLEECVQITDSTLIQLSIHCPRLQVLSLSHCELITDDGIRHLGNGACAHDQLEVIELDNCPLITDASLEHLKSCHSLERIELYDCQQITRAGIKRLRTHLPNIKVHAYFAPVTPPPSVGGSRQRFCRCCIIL
UniProt Q14204, whole entry: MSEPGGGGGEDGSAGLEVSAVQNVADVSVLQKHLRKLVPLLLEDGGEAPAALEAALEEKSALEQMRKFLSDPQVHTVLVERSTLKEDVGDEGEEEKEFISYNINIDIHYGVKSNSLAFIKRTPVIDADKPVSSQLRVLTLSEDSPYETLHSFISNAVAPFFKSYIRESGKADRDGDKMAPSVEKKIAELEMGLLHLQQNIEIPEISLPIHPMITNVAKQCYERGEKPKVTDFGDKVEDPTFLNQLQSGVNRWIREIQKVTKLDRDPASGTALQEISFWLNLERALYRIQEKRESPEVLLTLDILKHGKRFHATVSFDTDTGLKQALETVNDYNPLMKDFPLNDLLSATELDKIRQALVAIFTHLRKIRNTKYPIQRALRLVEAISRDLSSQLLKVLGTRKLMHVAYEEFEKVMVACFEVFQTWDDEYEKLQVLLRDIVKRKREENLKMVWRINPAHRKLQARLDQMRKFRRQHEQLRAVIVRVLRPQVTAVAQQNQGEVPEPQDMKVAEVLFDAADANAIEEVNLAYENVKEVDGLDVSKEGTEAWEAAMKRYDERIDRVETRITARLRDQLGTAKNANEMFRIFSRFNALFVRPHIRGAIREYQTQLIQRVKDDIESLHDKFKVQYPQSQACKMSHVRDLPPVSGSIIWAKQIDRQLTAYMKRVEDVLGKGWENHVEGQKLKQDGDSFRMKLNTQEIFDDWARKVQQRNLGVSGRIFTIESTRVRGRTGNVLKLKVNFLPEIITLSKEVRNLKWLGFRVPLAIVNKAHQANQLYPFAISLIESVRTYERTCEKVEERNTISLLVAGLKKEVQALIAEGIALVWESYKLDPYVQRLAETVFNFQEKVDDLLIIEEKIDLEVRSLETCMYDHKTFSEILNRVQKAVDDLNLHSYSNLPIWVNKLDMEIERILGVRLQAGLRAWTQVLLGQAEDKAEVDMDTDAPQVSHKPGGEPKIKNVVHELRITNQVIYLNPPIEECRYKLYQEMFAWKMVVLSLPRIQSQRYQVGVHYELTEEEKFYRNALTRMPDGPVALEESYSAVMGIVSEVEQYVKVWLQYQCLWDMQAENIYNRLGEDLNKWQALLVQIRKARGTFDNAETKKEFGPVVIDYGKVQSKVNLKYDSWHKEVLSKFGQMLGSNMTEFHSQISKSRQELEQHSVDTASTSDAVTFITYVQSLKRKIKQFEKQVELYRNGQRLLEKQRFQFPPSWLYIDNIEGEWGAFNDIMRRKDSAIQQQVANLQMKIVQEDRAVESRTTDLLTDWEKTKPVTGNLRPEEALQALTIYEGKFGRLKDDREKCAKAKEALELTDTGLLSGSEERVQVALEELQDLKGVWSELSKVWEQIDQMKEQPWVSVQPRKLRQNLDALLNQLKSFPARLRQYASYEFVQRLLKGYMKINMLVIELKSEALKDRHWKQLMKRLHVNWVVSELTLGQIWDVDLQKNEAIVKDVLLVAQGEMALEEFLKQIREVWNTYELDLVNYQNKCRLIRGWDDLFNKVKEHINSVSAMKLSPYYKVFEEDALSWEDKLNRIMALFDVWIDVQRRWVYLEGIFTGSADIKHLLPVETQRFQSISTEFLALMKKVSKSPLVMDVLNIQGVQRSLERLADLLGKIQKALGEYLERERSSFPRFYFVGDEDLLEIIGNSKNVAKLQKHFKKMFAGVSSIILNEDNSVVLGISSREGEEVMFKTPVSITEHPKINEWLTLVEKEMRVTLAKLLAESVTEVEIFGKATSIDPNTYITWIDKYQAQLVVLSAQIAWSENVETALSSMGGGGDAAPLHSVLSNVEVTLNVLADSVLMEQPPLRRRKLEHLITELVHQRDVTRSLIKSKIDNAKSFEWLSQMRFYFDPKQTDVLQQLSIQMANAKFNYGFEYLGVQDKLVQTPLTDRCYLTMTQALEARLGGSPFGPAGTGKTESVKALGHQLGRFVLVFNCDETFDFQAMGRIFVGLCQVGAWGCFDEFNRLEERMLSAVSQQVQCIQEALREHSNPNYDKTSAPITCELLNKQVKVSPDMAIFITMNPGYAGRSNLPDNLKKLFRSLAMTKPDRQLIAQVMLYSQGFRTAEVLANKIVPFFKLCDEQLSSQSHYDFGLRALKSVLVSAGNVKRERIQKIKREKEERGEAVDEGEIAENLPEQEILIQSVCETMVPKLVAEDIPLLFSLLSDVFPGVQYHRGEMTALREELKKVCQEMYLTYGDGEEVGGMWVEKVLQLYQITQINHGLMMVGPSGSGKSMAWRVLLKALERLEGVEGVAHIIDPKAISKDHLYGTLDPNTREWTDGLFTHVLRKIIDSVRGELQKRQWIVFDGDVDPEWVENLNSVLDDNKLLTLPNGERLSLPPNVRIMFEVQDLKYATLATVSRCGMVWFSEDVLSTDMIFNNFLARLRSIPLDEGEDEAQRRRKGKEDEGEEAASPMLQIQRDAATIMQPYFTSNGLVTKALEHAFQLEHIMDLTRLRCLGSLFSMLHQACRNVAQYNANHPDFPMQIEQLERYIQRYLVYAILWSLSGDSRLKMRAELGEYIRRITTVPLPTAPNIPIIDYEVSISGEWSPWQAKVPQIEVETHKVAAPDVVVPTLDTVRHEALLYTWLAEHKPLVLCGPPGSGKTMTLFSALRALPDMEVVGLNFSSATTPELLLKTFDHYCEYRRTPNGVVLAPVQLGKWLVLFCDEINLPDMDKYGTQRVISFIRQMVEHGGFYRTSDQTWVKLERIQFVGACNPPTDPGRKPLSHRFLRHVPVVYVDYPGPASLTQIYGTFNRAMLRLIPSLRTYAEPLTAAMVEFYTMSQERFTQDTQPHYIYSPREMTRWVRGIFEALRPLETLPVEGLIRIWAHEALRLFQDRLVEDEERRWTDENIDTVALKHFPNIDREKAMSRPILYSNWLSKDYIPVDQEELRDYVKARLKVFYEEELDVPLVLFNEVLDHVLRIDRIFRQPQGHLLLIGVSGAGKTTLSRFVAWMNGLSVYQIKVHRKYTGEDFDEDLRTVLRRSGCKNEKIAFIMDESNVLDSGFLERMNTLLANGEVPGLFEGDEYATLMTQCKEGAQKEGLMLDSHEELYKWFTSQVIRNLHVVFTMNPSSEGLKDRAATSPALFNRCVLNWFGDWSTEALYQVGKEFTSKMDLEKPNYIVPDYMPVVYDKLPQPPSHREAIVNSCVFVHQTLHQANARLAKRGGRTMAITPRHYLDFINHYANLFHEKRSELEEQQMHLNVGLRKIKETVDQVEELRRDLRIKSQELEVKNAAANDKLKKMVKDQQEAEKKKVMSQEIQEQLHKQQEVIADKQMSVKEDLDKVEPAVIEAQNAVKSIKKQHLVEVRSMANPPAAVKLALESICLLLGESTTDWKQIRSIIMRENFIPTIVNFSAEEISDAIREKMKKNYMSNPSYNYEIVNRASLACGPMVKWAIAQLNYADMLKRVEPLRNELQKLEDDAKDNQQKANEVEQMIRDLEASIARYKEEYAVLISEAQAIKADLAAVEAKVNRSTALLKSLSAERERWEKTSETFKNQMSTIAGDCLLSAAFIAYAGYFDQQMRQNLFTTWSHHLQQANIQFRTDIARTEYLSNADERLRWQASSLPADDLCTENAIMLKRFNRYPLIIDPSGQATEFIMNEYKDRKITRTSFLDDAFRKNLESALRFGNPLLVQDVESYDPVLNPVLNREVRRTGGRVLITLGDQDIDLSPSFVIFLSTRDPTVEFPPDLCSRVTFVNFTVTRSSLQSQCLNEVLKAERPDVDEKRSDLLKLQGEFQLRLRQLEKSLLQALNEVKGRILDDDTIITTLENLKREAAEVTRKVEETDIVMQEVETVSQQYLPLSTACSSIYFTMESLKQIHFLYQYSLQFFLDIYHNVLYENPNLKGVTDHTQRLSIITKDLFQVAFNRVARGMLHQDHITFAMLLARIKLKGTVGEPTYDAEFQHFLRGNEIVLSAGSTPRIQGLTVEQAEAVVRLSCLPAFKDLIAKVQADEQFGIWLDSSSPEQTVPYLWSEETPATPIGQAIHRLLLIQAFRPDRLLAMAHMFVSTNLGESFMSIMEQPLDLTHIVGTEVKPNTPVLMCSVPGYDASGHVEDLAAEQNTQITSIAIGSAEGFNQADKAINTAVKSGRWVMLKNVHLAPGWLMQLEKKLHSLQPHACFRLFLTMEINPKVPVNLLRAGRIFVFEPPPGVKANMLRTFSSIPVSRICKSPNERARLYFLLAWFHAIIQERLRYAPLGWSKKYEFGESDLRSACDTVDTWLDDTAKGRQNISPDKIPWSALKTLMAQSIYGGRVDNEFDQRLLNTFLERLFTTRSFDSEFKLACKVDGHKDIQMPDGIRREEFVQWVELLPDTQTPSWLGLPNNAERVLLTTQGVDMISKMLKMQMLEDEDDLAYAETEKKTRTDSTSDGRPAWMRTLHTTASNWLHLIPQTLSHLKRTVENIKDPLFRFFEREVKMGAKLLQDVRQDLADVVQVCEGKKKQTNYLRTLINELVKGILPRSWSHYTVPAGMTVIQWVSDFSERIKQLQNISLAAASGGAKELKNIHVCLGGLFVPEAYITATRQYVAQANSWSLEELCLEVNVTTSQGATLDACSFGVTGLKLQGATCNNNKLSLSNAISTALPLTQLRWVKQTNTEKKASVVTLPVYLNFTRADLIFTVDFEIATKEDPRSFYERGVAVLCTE
UniProt Q06323: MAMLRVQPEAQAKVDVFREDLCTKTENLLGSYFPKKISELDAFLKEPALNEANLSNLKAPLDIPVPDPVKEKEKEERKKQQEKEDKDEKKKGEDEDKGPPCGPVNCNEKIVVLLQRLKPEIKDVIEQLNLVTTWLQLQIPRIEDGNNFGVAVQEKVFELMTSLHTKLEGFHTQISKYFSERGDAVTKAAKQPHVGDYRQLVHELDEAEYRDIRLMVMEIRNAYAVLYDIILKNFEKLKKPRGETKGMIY
UniProt Q99611, whole entry: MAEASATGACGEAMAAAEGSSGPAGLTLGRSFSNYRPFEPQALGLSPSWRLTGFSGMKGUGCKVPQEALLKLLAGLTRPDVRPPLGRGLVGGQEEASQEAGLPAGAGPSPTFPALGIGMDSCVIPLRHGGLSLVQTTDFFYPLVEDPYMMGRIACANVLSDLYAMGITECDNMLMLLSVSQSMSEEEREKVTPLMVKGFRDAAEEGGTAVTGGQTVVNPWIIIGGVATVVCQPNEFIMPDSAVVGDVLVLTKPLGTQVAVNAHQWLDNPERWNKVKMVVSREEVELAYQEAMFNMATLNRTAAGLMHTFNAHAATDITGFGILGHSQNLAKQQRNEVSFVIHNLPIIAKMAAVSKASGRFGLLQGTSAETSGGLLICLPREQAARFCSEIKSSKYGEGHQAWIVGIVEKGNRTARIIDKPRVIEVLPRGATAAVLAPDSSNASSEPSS

Compound: Nc1ncnc2c1ncn2[C@@H]1O[C@H](COP(=O)(O)OP(=O)(O)NP(=O)(O)O)[C@@H](O)[C@H]1O [adenylyl imidodiphosphate]
Test: NP40-soluble protein abundance relative to vehicle (solubility fold change) (ratio); higher = more soluble protein in presence of AMP-PNP
Method in brief: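 Jurkat crude lysate prepared with a Dounce homogeniser was treated at eight concentrations spanning 0.1 to 10 mM, 10 min at room temperature then 3 min at 37 °C. Solubilisation with 0.8% NP40 and benzonase and ultracentrifugation preceded TMT labelling of the supernatant for LC-MS/MS. Fold change against the detergent-processed vehicle was determined per replicate from vsn-normalised intensities, across three independent experiments.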

Row | Target | NP40-soluble protein abundance (concentration: 1mM) | NP40-soluble protein abundance (concentration: 2mM) | NP40-soluble protein abundance (concentration: 4mM) | NP40-soluble protein abundance (concentration: 6mM) | NP40-soluble protein abundance (concentration: 8mM) | NP40-soluble protein abundance (concentration: 10mM)
1 | G5E9A6 and related entries (UniProt P51784) | 0.984 ± 0.033 | 0.892 ± 0.11 | 0.96 ± 0.0093 | 0.933 ± 0.0096 | 0.964 ± 0.013 | 0.914 ± 0.02
2 | I3L2J0 and related entries (UniProt Q96RK0) | 1.01 ± 0.017 | 1.03 ± 0.11 | 1.01 ± 0.032 | 0.975 ± 0.028 | 0.986 ± 0.045 | 0.993 ± 0.033
3 | H0YIP2 and related entries (UniProt P49642) | 0.9809 ± 0.0084 | 0.979 ± 0.025 | 0.945 ± 0.015 | 0.946 ± 0.034 | 0.929 ± 0.043 | 0.938 ± 0.038
4 | I3L1P8 and related entries (UniProt Q02978) | 0.972 ± 0.01 | 0.914 ± 0.035 | 0.9876 ± 0.0019 | 0.974 ± 0.043 | 1.02 ± 0.018 | 0.97 ± 0.014
5 | H3BVD9 and related entries (UniProt O43278) | 1.05 ± 0.027 | 1.05 ± 0.019 | 1.02 ± 0.016 | 1 ± 0.028 | 0.997 ± 0.015 | 1.018 ± 0.0079
6 | G3XAG1 and related entries (UniProt Q96ME7) | 1.04 ± 0.064 | 1.03 ± 0.1 | 1.17 ± 0.086 | 1.39 ± 0.083 | 1.52 ± 0.039 | 1.64 ± 0.1
7 | G5E9L0 and related entries (UniProt Q8N6H7) | 1.02 ± 0.011 | 1.03 ± 0.046 | 0.997 ± 0.033 | 0.973 ± 0.018 | 0.948 ± 0.023 | 0.972 ± 0.029
8 | J3QLS3 and related entries (UniProt Q9Y2R9) | 1.01 ± 0.066 | 1.03 ± 0.033 | 0.964 ± 0.064 | 0.965 ± 0.11 | 0.975 ± 0.1 | 0.893 ± 0.072
9 | H0YIE9 and related entries (UniProt O94952) | 0.991 ± 0.03 | 0.926 ± 0.052 | 0.967 ± 0.047 | 0.987 ± 0.05 | 1.02 ± 0.029 | 0.99 ± 0.039
10 | J3KNV1 and related entries (UniProt O60281) | 1.02 ± 0.034 | 1.08 ± 0.024 | 1.016 ± 0.0028 | 0.966 ± 0.034 | 0.968 ± 0.02 | 0.985 ± 0.041
11 | J3KP06 and related entries (UniProt Q8WWI1) | 1.06 ± 0.017 | 1.109 ± 0.0053 | 1.16 ± 0.084 | 1.18 ± 0.065 | 1.19 ± 0.025 | 1.27 ± 0.051
12 | H7C5I3 and related entries (UniProt P35236) | 0.978 ± 0.0098 | 1.01 ± 0.021 | 0.994 ± 0.037 | 0.978 ± 0.011 | 0.959 ± 0.018 | 0.982 ± 0.033
13 | J3KTA1 and related entries (UniProt Q96IG2) | 0.993 ± 0.029 | 0.976 ± 0.034 | 1.01 ± 0.03 | 1 ± 0.023 | 1.02 ± 0.045 | 1 ± 0.082
14 | H0Y860 and related entries (UniProt Q9P246) | 0.951 ± 0.013 | 1.04 ± 0.081 | 1.01 ± 0.034 | 0.961 ± 0.018 | 0.925 ± 0.02 | 0.931 ± 0.04
15 | H0YDM4 and related entries (UniProt Q86VS8) | 1 ± 0.018 | 1.04 ± 0.073 | 0.998 ± 0.042 | 0.941 ± 0.013 | 0.958 ± 0.0034 | 0.887 ± 0.043
16 | G5EA36 and related entries (UniProt P30260) | 0.972 ± 0.022 | 0.974 ± 0.036 | 0.977 ± 0.049 | 0.983 ± 0.071 | 0.983 ± 0.093 | 0.986 ± 0.1
17 | H0YJ21 and related entries (UniProt Q14204) | 0.962 ± 0.035 | 0.881 ± 0.14 | 0.943 ± 0.084 | 0.911 ± 0.069 | 0.943 ± 0.1 | 0.899 ± 0.13
18 | J3QS69 and related entries (UniProt P60842) | 1.03 ± 0.03 | 0.915 ± 0.061 | 1.01 ± 0.019 | 1.05 ± 0.067 | 1.12 ± 0.041 | 1.06 ± 0.016
19 | H0YKK6 and related entries (UniProt Q06323) | 0.924 ± 0.058 | 1.01 ± 0.062 | 0.892 ± 0.062 | 0.924 ± 0.062 | 0.908 ± 0.027 | 0.821 ± 0.09
20 | H3BP71 and related entries (UniProt O75150) | 1.05 ± 0.032 | 1.08 ± 0.032 | 1.04 ± 0.017 | 1.03 ± 0.034 | 1.01 ± 0.015 | 1.04 ± 0.032
21 | H3BMM9 and related entries (UniProt Q15287) | 1.08 ± 0.1 | 1.07 ± 0.032 | 0.989 ± 0.061 | 0.987 ± 0.071 | 0.931 ± 0.078 | 0.998 ± 0.11
22 | H3BTB7 and related entries (UniProt Q5JPH6) | 0.978 ± 0.042 | 0.934 ± 0.081 | 0.98 ± 0.027 | 0.996 ± 0.043 | 1.006 ± 0.0083 | 0.968 ± 0.015
23 | H0Y2S9 and related entries (UniProt Q6WCQ1) | 1.02 ± 0.012 | 1.03 ± 0.026 | 1.011 ± 0.0086 | 1.008 ± 0.0032 | 1.04 ± 0.034 | 1.04 ± 0.052
24 | H3BPB8 and related entries (UniProt P34949) | 1.029 ± 0.0072 | 1.01 ± 0.039 | 1.02 ± 0.027 | 0.976 ± 0.029 | 1.01 ± 0.042 | 0.988 ± 0.048
25 | J3QQV6 and related entries (UniProt Q9NVS9) | 0.988 ± 0.05 | 0.999 ± 0.044 | 0.96 ± 0.03 | 0.953 ± 0.013 | 0.948 ± 0.039 | 0.9568 ± 0.0081
26 | J3QT09 and related entries (UniProt Q9BQF6) | 1.01 ± 0.042 | 0.977 ± 0.011 | 0.997 ± 0.05 | 1.02 ± 0.027 | 1.03 ± 0.026 | 1.01 ± 0.039
27 | H3BNF9 and related entries (UniProt Q9Y2V0) | 0.941 ± 0.027 | 0.939 ± 0.036 | 0.925 ± 0.022 | 0.898 ± 0.027 | 0.9264 ± 0.0073 | 0.871 ± 0.0055
28 | H7BXF4 and related entries (UniProt Q9NXE4) | 0.979 ± 0.037 | 0.935 ± 0.035 | 0.996 ± 0.028 | 0.944 ± 0.026 | 0.984 ± 0.022 | 0.943 ± 0.024
29 | J3KR58 and related entries (UniProt Q99611) | 1.04 ± 0.016 | 1.041 ± 0.0078 | 1.03 ± 0.032 | 1.01 ± 0.028 | 1 ± 0.018 | 0.991 ± 0.019
30 | H7BYJ3 and related entries (UniProt O14578) | 1.027 ± 0.0099 | 1.02 ± 0.0061 | 1.011 ± 0.0035 | 0.977 ± 0.038 | 0.957 ± 0.012 | 0.961 ± 0.021

Record cards, from the list above:
H0Y860 and related entries (UniProt Q9P246) as listed: NP40-soluble protein abundance (concentration: 1mM): 0.951 ± 0.013; NP40-soluble protein abundance (concentration: 2mM): 1.04 ± 0.081; NP40-soluble protein abundance (concentration: 4mM): 1.01 ± 0.034; NP40-soluble protein abundance (concentration: 6mM): 0.961 ± 0.018; NP40-soluble protein abundance (concentration: 8mM): 0.925 ± 0.02; NP40-soluble protein abundance (concentration: 10mM): 0.931 ± 0.04
J3KTA1 and related entries (UniProt Q96IG2) as listed: NP40-soluble protein abundance (concentration: 1mM): 0.993 ± 0.029; NP40-soluble protein abundance (concentration: 2mM): 0.976 ± 0.034; NP40-soluble protein abundance (concentration: 4mM): 1.01 ± 0.03; NP40-soluble protein abundance (concentration: 6mM): 1 ± 0.023; NP40-soluble protein abundance (concentration: 8mM): 1.02 ± 0.045; NP40-soluble protein abundance (concentration: 10mM): 1 ± 0.082
